Results are given in words; binding and its absence hold for the method and conditions named. Some entries that bind do so weakly or less than the wild type.
What was measured:
[1] = target: Selenomethionine-derivatized PigF from Serratia marcescens FS14 (Serratia marcescens FS14) (UniProt Q5W249); test: crystal structure; apo SeMet PigF, hanging-drop vapour diffusion, pH 4.6, 12% MPD, space group P12(1)1, two molecules in the asymmetric unit, 1.9 A; both purified
[2] = target: PigF, O-methyltransferase of the prodigiosin synthetic pathway from Serratia marcescens FS14 (Serratia marcescens FS14) (UniProt Q5W249); test: crystal structure; PigF premixed with 2 mM SAH, hanging-drop vapour diffusion, pH 4.6, 12% MPD, space group P12(1)1, two monomers in the asymmetric unit, 1.97 A; both purified

Row | binding [1] | binding [2] | Binder
1 | binds | – | Selenomethionine-derivatized PigF from Serratia marcescens FS14 (enzyme, UniProt Q5W249 1-338, selenomethionine in place of methionine (SeMet-derivatized)) MPLTKQDAVNQMMGFFQAKALTAALALKLFDQLRDRDADAAHIAARLDCPARSTEQLLIALRAMGYLDQRDGLYHLPAAHRAFLLSDEPQWLGWLGRHIDTFLYPLWGELKTAVRNDAHQRRTVFGDDRSWFDILYQNPDDVADFQEFLGKFAAPFIAGFVRDYDFSQHRAFLDIGSGIGSLPMAIADAYPGIALAICELPQASAFLRDKLTLQGYGERIDVVEGDVISGDLPIGGYDLIHLGWMLHDYAPETQLTILRNIYRAMPAGGRFIASETPLNEDKSGPEFTALLSLNMLVSTDGGIESSAQEYLDRFRLAGFSNARIMKIAGPRTLIVGEK
2 | – | binds | PigF, O-methyltransferase of the prodigiosin synthetic pathway from Serratia marcescens FS14 (enzyme, PigF of Serratia marcescens FS14, 338 amino-acid residues; 100% identical to PigF of S. marcescens VGH107 (NCBI WP 004940222.1); residues 3-338 are seen in both chains of the PigF-SAH structure; Cloned into pET-24b as in Liu et al., 2012; The results call the protein N-terminally polyhistidine-tagged; pET-24b usually adds a C-terminal His tag (surmise); Crystallised with 2 mM SAH (small molecule) …) MPLTKQDAVNQMMGFFQAKALTAALALKLFDQLRDRDADAAHIAARLDCPARSTEQLLIALRAMGYLDQRDGLYHLPAAHRAFLLSDEPQWLGWLGRHIDTFLYPLWGELKTAVRNDAHQRRTVFGDDRSWFDILYQNPDDVADFQEFLGKFAAPFIAGFVRDYDFSQHRAFLDIGSGIGSLPMAIADAYPGIALAICELPQASAFLRDKLTLQGYGERIDVVEGDVISGDLPIGGYDLIHLGWMLHDYAPETQLTILRNIYRAMPAGGRFIASETPLNEDKSGPEFTALLSLNMLVSTDGGIESSAQEYLDRFRLAGFSNARIMKIAGPRTLIVGEK

Source: PMC8895007, “Crystal structures of PigF, an O-methyltransferase involved in the prodigiosin synthetic pathway, reveal an induced-fit substrate-recognition mechanism” (IUCrJ, 2022)
